B1: GHBD2: γ-hydroxybutyrate dehydrogenase homolog from Arabidopsis (SEQ ID NO: 16), expressed from pTrcAds (protein)
chain: MEVGFLGLGIMGKAMSMNLLKNGFKVTVWNRTLSKCDELVEHGASVCESPAEVIKKCKYTIAMLSDPCAALSVVFDKGGVLEQICEGKGYIDMSTVDAETSLKINEAITGKGGRFVEGPVSGSKKPAEDGQLIILAAGDKALFEESIPAFDVLGKRSFYLGQVGNGAKMKLIVNMIMGSMMNAFSEGLVLADKSGLSSDTLLDILDLGAMTNPMFKGKGPSMNKSSYPPAFPLKHQQKDMRLALALGDENAVSMPVAAAANEAFKKARSLGLGDLDFSAVIEAVKFSRE
modifications: Arabidopsis
B2: GHBD1: γ-hydroxybutyrate dehydrogenase homolog from tulip pistil (SEQ ID NO: 14), expressed from pTrcEtp (protein)
chain: MEVGFLGLGIMGKAMAVNLLRSGFRVTVWNRTLSKCNELLEQGASVGETPAAVIKKCKYTIAMLSDPSAALSVVFDKDGVLEHMSSGKGYIDMSTVDAVTSSKISEAITQKGGHFLEAPVSGSKKPAEDGQLVILAAGEKALYEEIIPAFEVLGKKSFFLGQVGNGANMKLIVNMIMGSMMNALSEGLSLAGKSGLEQKTLLDVLDLGAIANPMFKLKGPAMIQNNHPPAFPLKHQQKDMRLALALGDENAVSMPVAAAANEAFKKARSLGLGDLDFSAVYEVLKYGDAS
modifications: tulip pistil

Experiment: Kinetic analysis of purified dehydrogenases with succinatesemialdehyde and NADPH
Format: biochemical
Settings: purified proteins
Description: Cultures were grown at 37° C. for 5 h and then were transferred to 100 mL of LB liquid media containing ampicillin (100 μg/mL). These were grown overnight at room temperature. The next morning, 50 mL of each culture was transferred to 1 L of LB and grown at room temperature until the OD600 nm reached 0.8. IPTG was added to the cultures to a concentration of 0.4 mM and cultures were grown for an additional 4 h at room temperature. The cultures were then centrifuged at 10,000× g for 15 min, the supernatant was decanted and the resulting pellet was resuspended in 10 mL of breakage buffer (100 mM HEPES, pH 7.2; 10 % glycerol; 1 mM AEBSF; 1 μg/mL leupeptin; and 1 μg/mL pepstatin). Cells were broken by passage two times through a french press and the resulting extract was centrifuged at 16,000× g for 15 min at 4° C. […] All fractions were analyzed by SDS-PAGE.
All proteins eluted at around 120 mM immidazole. […] Under these conditions, the kinetic parameters for the Arabidopsis dehydrogenase (kcat=1290 min-1, KM=4 mM) and the Tulip dehydrogenase (kcat=1200 min^−1, KM=3 mM) were determined. The ablility of each enzyme to reduce to α-methylenesuccinatesemialdehyde to α-methylene-γ-hydroxybutyrate was assessed in a coupled assay. […] Compounds were detected with a Waters 9600 PDA detector. […]

Molecule	pH optimum
B1	~7.0
B2	~7.0
